Source: ChEMBL document CHEMBL3988442, “University of Dundee, Small-Polar-MMV Screening Library” (2021).

A: 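Whole-cell growth test on Mycobacterium tuberculosis, read after 4 days in a medium based on cholesterol and the lipid DPPC; the read-out is not stated. Tested at 50 µM. Direction is inferred from retests: higher values go with more growth inhibition. Of about 69,000 compounds tested this way, about 370 (0.54%) reached 50% or more in at least one test.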
B: 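Growth of Mycobacterium tuberculosis over 3 days (7H9 medium with glucose and tyloxapol); the read-out is not stated. Tested at 50 µM. The record gives no direction; compounds that gave an IC50 in retests scored well above the rest, so higher reads as more growth inhibition. About 69,000 compounds were tested under these conditions; 1.1% (about 760) showed 50% or more at least once.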

Results are given as percent effect. The controls that fix the scale are not given in the record; negative values are as filed. This is an unselected part of the compounds tested. Two or more numbers in one place are separate tests of the same structure; such repeats can differ widely.

SMILES | A | B
Cc1ccn(-c2ccc(C(=O)N3CCCC(C(N)=O)C3)cc2)n1 (stereo not drawn) | -13.94 | -18.36
COc1cc(CN(C)C(=O)NCc2cccnc2OC)ccc1SC | -23.86 | -25.81
O=C(Cc1ccc2c(c1)CCO2)Nc1cccnc1-n1cncn1 | -20.49 | -7.375
O=C(CC1CC1)N1CCC2(CC1)C(=O)NCCN2Cc1ccccc1 | -23 | -37.87
CN(C)C(=O)CN1CCc2ncnc(C3CC3)c2CC1 | -16.43 | -18.49
COc1nsc2nc(C3CCCN3c3ncccn3)ccc12 (stereo not drawn) | -6.594 & -16.31 | -3.616
CC(C)c1nc(C(=O)N(C)c2ccc(Br)cn2)cs1 | 22.09 | 29.06 & 9.143
NS(=O)(=O)c1ccc(N2CCN(CCCc3cn[nH]c3)CC2)cc1 | -2.142 | -19.4
N#Cc1cccc(N2CCCC3(CN(C(=O)[C@H]4CCCO4)CCO3)C2)c1 (stereo partly drawn) | -14.8 | 2.021 & -15.77
CCc1ocnc1C(=O)N1CCOC(CCCC(C)C)C1 (stereo not drawn) | 25.37 | 28.95 & 26.65
CN(Cc1ccco1)C1CCC12CCN(C(=O)c1ccncc1)CC2 (stereo not drawn) | 12.96 | 6.717
Cl.O[C@@H]1CN(Cc2ccc(F)cc2)CC[C@H]1NCc1ccccn1 | 6.834 & 0.15 | 19.14
O=C(CCc1nccs1)N1CCCC(N2CCNC2=O)C1 (stereo not drawn) | -6.791 | -2.643 & -8.133
CN(C)CCC1CCN(Cc2ccn(C)c(=O)c2)CC1 | -26.37 | -6.523
Cc1ccsc1[C@@H]1CCN(C(=O)c2ccc(-c3cc[nH]n3)cc2)C[C@H]1O | -1.005 | 25.42
CC(C)n1ccnc1C1CCN(C(=O)c2ccccc2)CC1 | 3.436 | -3.408
CCN1CCCC1(C)c1nc(C)cc(N)n1 (stereo not drawn) | -6.24 | 34.41
O=c1[nH]c(CCN2CCCCC2Cn2cccn2)nc2ccccc12 (stereo not drawn) | 7.091 | 32.24
O=C(O)C(F)(F)F.O=C(O)C(F)(F)F.[H][C@@]12CCCO[C@]1([H])[C@H](NC(=O)CC1CC1)CN(Cc1ccncc1)C2 | 4.571 | 5.711
CN(C)c1ccc(CC(=O)N[C@@H]2CCNC[C@H]2O)cc1 | -11.11 | -2.256
O=C(C1CCC1)N1CCC(=O)N(C2CC2)Cc2cc(F)ccc21 | -9.415 | -2.375
O=C(NCC1Cn2nnc(-c3ccncc3)c2CO1)c1ccsc1.O=C(O)C(F)(F)F (stereo not drawn) | -10.27 | -9.576 & -23.44
CCOCc1ccccc1CNc1ccc2nncn2n1 | -1.879 & 4.457 | -18.52
CCCc1cc(=O)[nH]c(-c2ccccc2CN(C)CCC(C)C)n1 | 21.82 | -6.341
O=C(c1cc(-n2cccn2)ccn1)N(CC(F)(F)F)C1CCCC1 | 21.79 | 37.07
CN(Cc1ccsc1)C(=O)CN1CCOC(Cn2cncn2)C1 (stereo not drawn) | 4.673 | -16.06
Cn1cc(CN2CCn3cc(CNC(=O)CC4CC4)nc3C2)cn1.O=C(O)C(F)(F)F | -6.258 | -10.46
Cc1ccccc1-c1cncc(C2CCN(CCO)CC2)n1 | 9.525 | -4.421
CN(C)CC1CN(Cc2csc(C3CCCC3)n2)CCO1 (stereo not drawn) | 11.56 | 13.27
COc1nn(C)c2c1CCCN(C(=O)c1ccc(C)c(F)c1)C2 | -8.364 | -8.88
Cl.Cl.[H][C@@]12CNCC[C@]1([H])N(c1nccs1)[C@H](Cn1cncn1)C2 | -12.56 | -59.64 & -9.343
CCCOCCN1CCc2[nH]c(-c3ccccc3)nc2C1 | -21.27 | 16.7 & 46.38
COc1ccc2cc(CN(C)C(C)c3nc(C4CC4)no3)ccc2c1 (stereo not drawn) | 14.19 | 46.58
Cc1nn(C)c(Cl)c1C1CCCN1C(=O)c1cc[nH]n1 (stereo not drawn) | 13.49 | 33.9
Cc1nc(C2CCCN2Cc2ccc(S(=O)(=O)N(C)C)o2)no1 (stereo not drawn) | -1.334 | -3.189
Cn1cc(N)c(-c2nnc3n2CCCC3)n1 | 2.547 | 0.1768
COc1ccc(CN2CCCCCC2c2cccs2)c(OC)c1 (stereo not drawn) | -1.345 | 19.33
COc1nn(C)cc1C(=O)NCC1(O)CCOCC1 | 0.4815 | -19.09
CCc1[nH]ncc1C(=O)N1CCCC(n2cc(C)cn2)C1 (stereo not drawn) | -27.34 | -15.6
Cn1ccnc1C(=O)NCc1cnc2n1CCN(CC1CC1)CC2.O=C(O)C(F)(F)F.O=C(O)C(F)(F)F | 0.927 | 10.68
Cc1ccc(CN2CCc3c(C(=O)N(C)C)nn(C)c3C2)s1.O=C(O)C(F)(F)F | -4.659 | 23.21
CC(C)c1cc(N[C@@H](CO)C(N)=O)n2nccc2n1 | -25.61 | -11.63
CCn1ccnc1CN1CCN(Cc2cccnc2)CC1C (stereo not drawn) | -36.28 | -19.63
O=C(O)C(F)(F)F.O=C(O)C(F)(F)F.[H][C@]12CCN(Cc3ccccn3)C[C@@]1([H])OCCN(Cc1csc(C)n1)C2 | 0.8605 | 1.04
CSc1ccccc1NC(=O)C1CN(C(=O)c2ccc3c(c2)OCO3)C1 | -9.054 | -10.65
COC(=O)c1cc(C(=O)N2CCN(C)CC2)n(-c2ccccc2)n1 | 12.02 | 15.47
Cc1ccc(F)cc1NC(=O)CNc1cccc2c1CCCC2 | -15.03 | -16.04 & 13.27
CS(=O)(=O)NC1CCCN(C(=O)c2cccnc2)C1 (stereo not drawn) | -4.102 | -7.756
c1ccc(C(Cn2cccn2)Nc2cnccn2)cc1 (stereo not drawn) | 5.692 | -6.211 & 0.1432
CS(=O)(=O)N1CCC2(CC1)CC(CC(=O)NC1CC1)c1ccccc12 (stereo not drawn) | -14.43 | 6.447
Cc1cc(C)n(C2CCCN(C(=O)CCc3nccs3)C2)n1 (stereo not drawn) | -18.02 | 1.543 & 25.88
Cc1n[nH]c(C)c1NC(=O)C1CCCN(C(=O)NCC(C)C)C1 (stereo not drawn) | -2.484 | -14.6
Cc1ccc(CN2Cc3nnn(C)c3C(COCc3ccccc3)C2)o1.O=C(O)C(F)(F)F (stereo not drawn) | -15.91 | -22.09
Cc1occc1CN(C)C(=O)Nc1ccc(=O)n(C)c1 | 10.69 | 5.22
COc1ccc(Cl)cc1CN(CC(N)=O)C(C)C | -17.04 | -15.84
Cc1cc(CN(C)C(C(=O)O)c2ccc(C(C)(C)C)cc2)on1 (stereo not drawn) | -7.514 | -10.95
Cc1nn(C)c(C)c1CC(=O)N1CCc2nnc(N(C)C)cc2C1 | -7.934 | 1.441
[H][C@]12CC[C@@]3(N=C(C)N(CCOC)C3=O)[C@@]1([H])CN(S(=O)(=O)CC(C)C)C2 | -40.23 | -27.13
O=C(O)C(F)(F)F.[H][C@@]12CCN(Cc3cn(C)c4ccccc34)[C@]1([H])CC[C@@H](C(=O)NC1CC1)O2 | 1.632 | 23.2
CC(C)C(=O)Nc1cc(C(C)(C)C)nn1-c1ccccn1 | -6.668 | 22.47
COCCN1CCC(CNC(=O)CCc2cc(F)ccc2F)C1 (stereo not drawn) | 19.9 | 10.7 & -1.436
COCCOCC(=O)Nc1cc(C)ccc1F | -19.65 | -12.01
CCC(C)(N)c1nc(C(C)C)cc(=O)[nH]1.Cl (stereo not drawn) | -1.513 & -2.72 | -14.14
NC[C@H]1CC[C@H](C(NC(=O)c2cccc(F)c2)c2ccccn2)CC1 (stereo partly drawn) | 0.4953 | 15.05
Cc1cc(CN(C)Cc2csc(-c3cccs3)n2)n[nH]1 | 10.1 | 8.677 & 7.757